Data as given in PubChem BioAssay AID1159584 (Peter MacCallum Cancer Centre, 2016)
Shown is one part, drawn at random, of about 18,000 reagents. Not given: the amount of reagent, the time to read-out.

- Purpose: 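Genes whose loss is lethal only together with E-cadherin loss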 (primary screen)
- System: human MCF10A breast epithelial cells, parental and CDH1-null
- Knock-down reagent: siRNA against human genes
- Measurement: 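ATP luminescence (CellTiter-Glo) viability per line relative to mean mock wells over all plates, and the ratio of CDH1-null to parental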
- Reading the numbers: CDH1-null / parental viability ratio: higher = CDH1-null cells survive relatively better than parental; CDH1-null viability vs mock: higher = more viable CDH1-null cells; parental viability vs mock: higher = more viable parental cells

| gene knocked down | CDH1-null / parental viability ratio | CDH1-null viability vs mock (fraction of mock) | parental viability vs mock (fraction of mock) |
| --- | --- | --- | --- |
| CNOT6 (CCR4-NOT transcription complex subunit 6) | 1.32 | 0.5 | 0.38 |
| SLC3A2 | 0.89 | 0.89 | 1 |
| ADISSP (adipose secreted signaling protein) | 0.84 | 0.77 | 0.92 |
| SFTPD (surfactant protein D) | 1.19 | 0.74 | 0.62 |
| EZH1 (enhancer of zeste 1 polycomb repressive complex 2 subunit) | 0.94 | 0.92 | 0.98 |
| ZNF438 (zinc finger protein 438) | 0.98 | 0.98 | 1 |
| OR8U9 (olfactory receptor family 8 subfamily U member 9) | 1.11 | 0.52 | 0.47 |
| POLR3G (RNA polymerase III subunit G) | 0.75 | 0.72 | 0.96 |
| VEGFC (vascular endothelial growth factor C) | 1.01 | 0.93 | 0.92 |
| RPE (ribulose-5-phosphate-3-epimerase) | 1.17 | 1.08 | 0.92 |
| SFMBT2 (Scm like with four mbt domains 2) | 1.23 | 1.08 | 0.88 |
| ILF3 (interleukin enhancer binding factor 3) | 1.06 | 0.87 | 0.82 |
| PCDH15 (protocadherin related 15) | 0.99 | 0.97 | 0.98 |
| THBD (thrombomodulin) | 1.02 | 1.08 | 1.06 |
| BCL2A1 (BCL2 related protein A1) | 1.06 | 1.04 | 0.98 |
| UBL4B (ubiquitin like 4B) | 0.84 | 0.87 | 1.04 |
| MROH9 (maestro heat like repeat family member 9) | 1.07 | 1.31 | 1.23 |
| LRG1 (leucine rich alpha-2-glycoprotein 1) | 0.98 | 0.61 | 0.62 |
| TMEM33 (transmembrane protein 33) | 1.28 | 0.41 | 0.32 |
| TP53I13 (tumor protein p53 inducible protein 13) | 1.25 | 0.55 | 0.44 |
| COPG1 (coat protein complex I subunit gamma 1) | 0.97 | 0.32 | 0.33 |
| DEUP1 (deuterosome assembly protein 1) | 0.93 | 0.83 | 0.89 |
| OR6C68 (olfactory receptor family 6 subfamily C member 68) | 1.21 | 0.92 | 0.76 |
| OPLAH (5-oxoprolinase, ATP-hydrolysing) | 0.92 | 0.7 | 0.76 |
| OPN1MW2 (opsin 1, medium wave sensitive 2) | 1.25 | 1.09 | 0.87 |
| AADACL4 (arylacetamide deacetylase like 4) | 1.17 | 0.96 | 0.82 |
| NOL4L (nucleolar protein 4 like) | 1.31 | 0.94 | 0.72 |
| ZSWIM4 (zinc finger SWIM-type containing 4) | 1.12 | 0.83 | 0.74 |
| SETDB1 (SET domain bifurcated histone lysine methyltransferase 1) | 0.92 | 0.9 | 0.98 |
| GPAM (glycerol-3-phosphate acyltransferase, mitochondrial) | 0.97 | 1.02 | 1.05 |
| CTRL (chymotrypsin like) | 1.12 | 0.94 | 0.84 |
| ZBTB3 (zinc finger and BTB domain containing 3) | 1.13 | 0.94 | 0.83 |
| CHST14 (carbohydrate sulfotransferase 14) | 1.28 | 0.64 | 0.5 |
| NCOA6 (nuclear receptor coactivator 6) | 0.9 | 0.86 | 0.96 |
| SRPRA (SRP receptor subunit alpha) | 0.58 | 0.36 | 0.62 |
| CDKN1C (cyclin dependent kinase inhibitor 1C) | 1.05 | 0.8 | 0.76 |
| SMN1 (survival of motor neuron 1, telomeric) | 0.96 | 0.7 | 0.73 |
| ZNF614 (zinc finger protein 614) | 1.11 | 1 | 0.9 |
| ANXA11 (annexin A11) | 1.03 | 0.65 | 0.63 |
| YJU2 (YJU2 splicing factor homolog) | 0.79 | 0.62 | 0.78 |
| RIT2 (Ras like without CAAX 2) | 1.1 | 0.99 | 0.9 |
| GRB10 (growth factor receptor bound protein 10) | 0.85 | 0.8 | 0.94 |
| TENT5B (terminal nucleotidyltransferase 5B) | 1.04 | 0.52 | 0.5 |
| TAS2R13 (taste 2 receptor member 13) | 1.35 | 1.09 | 0.81 |
| INSYN2A (inhibitory synaptic factor 2A) | 0.96 | 0.88 | 0.92 |
| AP2B1 (adaptor related protein complex 2 subunit beta 1) | 0.97 | 0.74 | 0.76 |
| C2CD2L (C2CD2 like) | 1.12 | 0.96 | 0.86 |
| SLC35E1 | 1.25 | 0.84 | 0.67 |
| CLNK (cytokine dependent hematopoietic cell linker) | 1.49 | 0.88 | 0.59 |
| RIPK3 (receptor interacting serine/threonine kinase 3) | 1.02 | 0.98 | 0.96 |
| FRZB (frizzled related protein) | 1 | 0.9 | 0.9 |
| MTSS2 (MTSS I-BAR domain containing 2) | 1.05 | 0.99 | 0.94 |
| TRIM3 (tripartite motif containing 3) | 1.03 | 0.93 | 0.9 |
| LPL (lipoprotein lipase) | 0.74 | 0.34 | 0.46 |
| CHN2 (chimerin 2) | 1.32 | 0.58 | 0.44 |
| ESCO1 | 1.18 | 0.86 | 0.73 |
| MICB (MHC class I polypeptide-related sequence B) | 0.87 | 0.86 | 0.99 |
| NDUFV1-DT (NDUFV1 divergent transcript) | 0.81 | 0.65 | 0.8 |
| KIF19 (kinesin family member 19) | 0.94 | 0.73 | 0.78 |
| ZFAND2A (zinc finger AN1-type containing 2A) | 0.94 | 0.84 | 0.89 |
| SMIM14 (small integral membrane protein 14) | 0.96 | 0.54 | 0.56 |
| P3H4 (prolyl 3-hydroxylase family member 4 (inactive)) | 1.06 | 0.57 | 0.54 |
| LAIR1 (leukocyte associated immunoglobulin like receptor 1) | 1.19 | 0.88 | 0.74 |
| GRAMD1C (GRAM domain containing 1C) | 0.9 | 0.52 | 0.58 |
| DEPDC1B (DEP domain containing 1B) | 1.01 | 0.76 | 0.75 |
| PSMA3 (proteasome 20S subunit alpha 3) | 1.46 | 0.38 | 0.26 |
| TMEM266 (transmembrane protein 266) | 0.91 | 0.8 | 0.88 |
| NLRC3 (NLR family CARD domain containing 3) | 1.01 | 0.77 | 0.76 |
| C6orf120 (chromosome 6 open reading frame 120) | 0.92 | 0.7 | 0.76 |
| FUT1 (fucosyltransferase 1 (H blood group)) | 1.01 | 1.02 | 1.01 |
| OR5D14 (olfactory receptor family 5 subfamily D member 14) | 1.19 | 0.92 | 0.77 |
| CNTD1 (cyclin N-terminal domain containing 1) | 1 | 0.36 | 0.36 |
| GDF5 (growth differentiation factor 5) | 1.05 | 0.98 | 0.93 |
| COA1 (cytochrome c oxidase assembly factor 1) | 0.72 | 0.68 | 0.94 |
| ATP5MC3 (ATP synthase membrane subunit c locus 3) | 0.9 | 0.81 | 0.9 |
| CCL11 (C-C motif chemokine ligand 11) | 0.68 | 0.52 | 0.77 |
| MYO3B (myosin IIIB) | 0.89 | 0.74 | 0.83 |
| NOTCH2NLA (notch 2 N-terminal like A) | 1.25 | 0.7 | 0.56 |
| ANAPC16 (anaphase promoting complex subunit 16) | 1.07 | 0.58 | 0.54 |
| S100A6 (S100 calcium binding protein A6) | 0.97 | 0.85 | 0.88 |
| GABRQ (gamma-aminobutyric acid type A receptor subunit theta) | 1.14 | 0.74 | 0.65 |
| ESCO2 | 0.82 | 0.56 | 0.68 |
| POPDC3 (popeye domain cAMP effector 3) | 0.83 | 0.75 | 0.9 |
| PWWP3B (PWWP domain containing 3B) | 0.97 | 0.34 | 0.35 |
| UNC5A (unc-5 netrin receptor A) | 0.79 | 0.68 | 0.86 |
| TRIM61 (tripartite motif containing 61) | 0.97 | 0.77 | 0.79 |
| NMNAT2 (nicotinamide nucleotide adenylyltransferase 2) | 1.06 | 0.94 | 0.89 |
